The source of these data is article PMC4846377.

For part of these data: The comparison behind a weaker result is the experiment's own reference, which may not be listed here. For part of these data: Construct, isoform or probe ends are uncertain for at least one entry. For part of these data: At least one verdict was read from the data and is not stated in words by the source.

Common to all, as to assay: EMSA
Common to all, as to settings: no divalent metal added; EMSA: 100 nM DNA, 31.5-2000 nM RecJ, 50 mM Tris pH 7.5, 60 mM KCl, 0.1 mg/ml BSA, 1 mM DTT, 5% glycerol, 30 C, 20 min; recombinant protein; residues 1-705; protein details: His-MBP tag removed by TEV; label: 3' 6-FAM; single-stranded DNA

In data set [1] the target is drRecJ R280A (Deinococcus radiodurans) (UniProt D0EM60).
In data set [2] the target is drRecJ wild-type (Deinococcus radiodurans) (UniProt D0EM60).
Data set [3] deals with drRecJ R313A/R314A (Deinococcus radiodurans) (UniProt D0EM60).
For data set [4], the target named is drRecJ F269A (Deinococcus radiodurans) (UniProt D0EM60).
Data set [5] concerns the target drRecJ V224A (Deinococcus radiodurans) (UniProt D0EM60).
Data set [6] deals with drRecJ K353A (Deinococcus radiodurans) (UniProt D0EM60).

Regarding AAAAAAAAAAAAAAAAAAAA [KY08 poly(dA)20], the binding result was “binds more weakly” in data set [1]; “binds” in data set [2]; “binds more weakly” in data set [3]; “binds more weakly” in data set [4]; “binds more weakly” in data set [5]; “binds more weakly” in data set [6].
